PubChem BioAssay AID504834 (National Center for Advancing Translational Sciences (NCATS), 2011)
The campaign covered roughly 320,000 compounds. About 22,000 (6.9%) were called active. Inconclusive means that the source gave no clear call. Such entries were picked first, then a sample of the others. Calls come from the whole dose curve; as a rule, active = well fitted inhibition curve with a large enough effect; inconclusive = small, poorly fitted or top-dose-only effect, or another doubt; inactive = no such curve, though single readings can be large or run the other way. A potency beside an inconclusive call is a rough fit, not a confirmed value.
Potency is the fitted concentration of half-maximal effect.

Assay: Primary qHTS for delayed death inhibitors of the malarial parasite plastid, 96 hour incubation
Settings: P. falciparum luciferase reporter growth; series mostly up to 28.7 µM
Summary of the method: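 Cell-based qHTS: luciferase-tagged P. falciparum in erythrocytes (2% hematocrit, 0.05% parasitemia final) incubated with compounds for 96 hours, 37 C, 5% CO2; luciferase detection reagent then added and luminescence measured.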
For `COCCN1CCN(C(=O)C2CCC(=O)N(Cc3ccccc3F)C2)CC1` (stereo unspecified), the Potency was inconclusive: 18.5 µM [inhibitor, single point]. In the case of `CCN(CC)c1ccc(-c2nc3cnccn3c2NC2CCCC2)cc1`, the Potency is reported as inconclusive: 1.47 µM [inhibitor, partial curve, poor fit]. For `O=C(Cc1cccs1)NNC(=S)NC(=O)c1ccco1`, the Potency was inconclusive: 1.85 µM [inhibitor, full curve, poor fit]. With `Cn1cc(Br)c(C(=O)NC2CCCCCC2)n1` the Potency was inconclusive: 18.5 µM [inhibitor, partial curve, poor fit]. In the case of `CCN1CCN(Cc2ccc(NC(=O)Nc3ccccc3OC)cc2)CC1`, the Potency is reported as “inactive”. In the case of `COc1cccc(NC(=O)COC(=O)c2c(F)cccc2Cl)c1`, the Potency is reported as “inactive”. With `NC1=NC(=Nc2cccc(Cl)c2)c2ccccc21` the Potency was “inactive”. For `C=CCn1c(COc2cccc(C)c2)nnc1SC(C)C(=O)NC1CC1` (stereo unspecified), the Potency was active: 13.1 µM. In the case of `COC(=O)C1=C(c2ccc(F)cc2OCc2ccccc2)C[C@@H]2CC[C@H]1N2C(=O)NCc1cccc(F)c1`, the Potency is reported as inconclusive: 2.33 µM [inhibitor, full curve]. In the case of `COc1cc2ccccc2cc1C(=O)OCC(=O)N(C)c1c(N)n(Cc2ccccc2)c(=O)[nH]c1=O`, the Potency is reported as inconclusive: 18.5 µM [inhibitor, single point]. In the case of `CCC(=O)NCc1c(C)c(C)n(Cc2ccccc2)c1-n1cccc1`, the Potency is reported as inconclusive: 5.22 µM [inhibitor, partial curve]. For `CCOC(=O)N1CCN(C(=O)CNC(=O)c2nn(-c3ccc(OC)cc3OC)c(=O)c3ccccc23)CC1`, the Potency was active: 1.04 µM. For `CC(C)(Oc1ccc(CCNC(=O)c2ccc(-c3ccc(Cl)cc3)o2)cc1)C(=O)O`, the Potency was inconclusive: 18.5 µM [inhibitor, single point]. In the case of `COc1ccc(-c2cc(=NCC(=O)O)c3ccccc3o2)cc1`, the Potency is reported as “inactive”. For `O=C(Cn1nnc(-c2ccc(Cl)cc2)n1)NC1CCS(=O)(=O)C1` (stereo unspecified), the Potency was “inactive”. For `O=C1CC(c2ccccc2)=NN1c1ccc([N+](=O)[O-])cc1`, the Potency was inconclusive: 9.28 µM [inhibitor, partial curve, poor fit]. For `c1cc(CCN2CCCC2)ccn1`, the Potency was inconclusive: 0.657 µM [inhibitor, partial curve, poor fit]. In the case of `CCOc1ccc(-c2cn[nH]c2N)cc1`, the Potency is reported as “inactive”. In the case of `COc1ccc(C(CNC(=O)c2cncc(Br)c2)N(C)C)cc1` (stereo unspecified), the Potency is reported as inconclusive: 11.7 µM [inhibitor, partial curve, poor fit]. In the case of `COc1ccc(-c2csc(NC(=O)CCN3C(=O)C4CC=CCC4C3=O)n2)cc1OC` (stereo unspecified), the Potency is reported as inconclusive: 10.4 µM [inhibitor, partial curve, poor fit]. For `NC(=O)NC(=O)CC1S/C(=N/N=C/c2ccccc2)NC1=O` (stereo unspecified), the Potency was inconclusive: 0.465 µM [inhibitor, full curve, poor fit]. With `COCCCNC(=O)C(=O)NCCCOC(C)C` the Potency was active: 11.7 µM. For `COc1ccccc1N1CCN(S(=O)(=O)c2ccc3c(c2)CC(C)N3C(C)=O)CC1` (stereo unspecified), the Potency was inconclusive: 18.5 µM [inhibitor, single point]. With `CC(OC(=O)c1cccc(-n2cnnn2)c1)C(=O)Nc1ccc(N(C)C)cc1` (stereo unspecified) the Potency was “inactive”. In the case of `CCc1cc2c(SCC(=O)c3ccccc3)ncnc2s1`, the Potency is reported as inconclusive: 13.1 µM [inhibitor, single point]. For `S=C(NCCc1cnc[nH]1)NC1CCCC1`, the Potency was inconclusive: 18.5 µM [inhibitor, single point]. With `CCOC(=O)Cn1c2ccc(F)cc2c2nc(C)sc21` the Potency was inconclusive: 2.33 µM [inhibitor, partial curve, poor fit]. With `O=C1OCc2cc(NS(=O)(=O)c3cccs3)ccc21` the Potency was “inactive”. For `COC(=O)C1=C(c2ccccc2OCc2ccccc2)C[C@@H]2CC[C@H]1N2C(=O)NCCc1ccc(F)cc1`, the Potency was inconclusive: 3.7 µM [inhibitor, full curve]. With `Cc1cc(/C=C2\SC(=S)NC2=O)c(C)n1C1CC1` the Potency was inconclusive: 0.522 µM [inhibitor, full curve, poor fit]. For `Cc1ccc(S(=O)(=O)Nc2nc(C)c(C(=O)NN)s2)cc1`, the Potency was “inactive”. For `COc1ccc(Cl)cc1NC(=S)Nc1ccccc1C`, the Potency was inconclusive: 8.28 µM [inhibitor, partial curve]. In the case of `CCOc1ccc(OCC)c(NC(=O)CC2Oc3ccc(C)cc3NC2=O)c1` (stereo unspecified), the Potency is reported as active: 10.4 µM. In the case of `COc1ccc(N2CCCn3c2nc2c3c(=O)n(CCCc3ccccc3)c(=O)n2C)cc1`, the Potency is reported as inconclusive: 1.17 µM [inhibitor, full curve]. With `COc1ccc(-c2cn(CCCOCc3ccccc3)nn2)cc1` the Potency was inconclusive: 16.5 µM [inhibitor, single point]. In the case of `CCCC(NC(=O)CCl)c1ccccc1` (stereo unspecified), the Potency is reported as inconclusive: 18.5 µM [inhibitor, single point]. In the case of `COc1ccc(C(c2c(C)n(C)n(-c3ccccc3)c2=O)c2c(C)n(C)n(-c3ccccc3)c2=O)cc1OC`, the Potency is reported as inconclusive: 11.7 µM [inhibitor, partial curve, poor fit]. For `COCCCN(CCC#N)C(=O)c1c(-c2c(Cl)cccc2Cl)noc1C`, the Potency was “inactive”. In the case of `CC(=O)N1c2ccc(S(=O)(=O)N3CCC(C(=O)N4CCN(c5cccc(C(F)(F)F)c5)CC4)CC3)cc2CC1C` (stereo unspecified), the Potency is reported as “inactive”. With `O=C(O)c1c2c(nc3ccccc13)CCCCC2` the Potency was inconclusive: 6.57 µM [inhibitor, single point]. With `CCOC(=O)CN(C(=O)CNC(=O)c1cccs1)C(C(=O)NC1CCCCC1)c1cccnc1` (stereo unspecified) the Potency was inconclusive: 18.5 µM [inhibitor, single point]. In the case of `O=C(NCCCc1ccc(F)cc1)C1CCC(=O)N(CCCN2CCCC2=O)C1` (stereo unspecified), the Potency is reported as “inactive”. For `Nn1c(SCc2cccc(Oc3ccccc3)c2)nnc1C(F)(F)F`, the Potency was “inactive”. With `CCOC(=O)C1=C(c2ccccc2)OC(N)=C(C#N)C1c1ccc(Cl)s1` (stereo unspecified) the Potency was “inactive”. With `CCCCN(CC)CCCNC(=O)c1cn(CC(C)C)c(=O)c2c1c1ccccc1n2C` the Potency was “inactive”. In the case of `O=C(Nc1ccccc1)C1=C[C@H](c2csc3ccccc23)C[C@H](OCCCCO)O1`, the Potency is reported as active: 8.28 µM.
